From publication PMC7819943, “Rice protein-binding microarrays: a tool to detect cis-acting elements near promoter regions in rice” come the findings set out here.

By UniProt entry, the sequences of proteins in these tests, tags left out.
UniProt Q0JBA9, entry or part of it: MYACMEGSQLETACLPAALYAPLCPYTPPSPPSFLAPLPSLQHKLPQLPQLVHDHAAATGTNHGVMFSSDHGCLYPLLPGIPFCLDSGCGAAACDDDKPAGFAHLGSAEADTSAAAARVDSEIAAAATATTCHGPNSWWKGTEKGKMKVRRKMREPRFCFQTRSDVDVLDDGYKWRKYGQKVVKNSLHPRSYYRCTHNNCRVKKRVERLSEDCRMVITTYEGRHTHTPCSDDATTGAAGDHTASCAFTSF

The list shows a part of the results.

The test addresses OsWRKY34 (Oryza sativa, UniProt Q0JBA9 1-250). Kind of test: protein-binding microarray (RPBM); PBS, 2% BSA, 51.3 ng/ul salmon testes DNA, 50 uM zinc acetate, 200 nM TF, 25 C, 1 h; high values mean tight binding. To be noted: protein: recombinant; tags: N-terminal polyhistidine and DsRed monomer fusion (pET32a); label: CyDye5-dUTP incorporated in the synthesized complementary strand; 3' TTTTT single-stranded linker to array surface; dsDNA, one strand shown. An outline of the steps:
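The binding signal for each feature is its fluorescence intensity in arbitrary units. An Axon 4000B scanner was used to read a custom Agilent array that had been made double-stranded with Cy5-dUTP primer extension, blocked with 2% BSA, incubated at 25 °C for 1 h with 200 nM protein in PBS, 2% BSA, salmon testes DNA and 50 µM zinc acetate, and washed. The protein was an N-terminal polyhistidine–DsRed transcription factor fusion from E. coli BL21-CodonPlus, purified on Ni–NTA.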
On to “TTCTCGGCCTCAACTCCCGTCTCCTCGCTAGTTCGCCCGCCGGAGTCACCTAGTGCAG”, for which the binding signal was 13300 fluorescence intensity (a.u.).
The figure for “CCAAACGGCCACCTCACTCTCCCTCTCTCTATCTCTCTCTCGGAGTCACCTAGTGCAG” is 10100 fluorescence intensity (a.u.).
The figure for “TAATCTCATCCTCATTGTTTTCTTCTCTTCTTTTTCTCTTCGGAGTCACCTAGTGCAG” is 10700 fluorescence intensity (a.u.); for “CCAGTGTCCGGACTTGTATATTTGAGATTCTAGCGGTGTCCGGAGTCACCTAGTGCAG” it is 8860 fluorescence intensity (a.u.); for “GTAGGAGTTGAGTTTTTTTTTTTTTTTTTTTTTTTACGGACGGAGTCACCTAGTGCAG” it is 8440 fluorescence intensity (a.u.).
Under “TCCTTGGGCTTTTTTTCTTGTTCGGGGTTGAGAGGCAATGCGGAGTCACCTAGTGCAG” stands 18700 fluorescence intensity (a.u.); under “ATCTCTTGTGGCTTTTTTTTGTGTGTGCATGCTGATAGCTCGGAGTCACCTAGTGCAG”, 8930 fluorescence intensity (a.u.).
Turning to “GCTGTTCCCGTTCCTTGCCTTCGGCCACATCAGCCCGTTCCGGAGTCACCTAGTGCAG”, the binding signal is 9530 fluorescence intensity (a.u.).
Under “ATTCCCCTACCTCGCTCGTCTTCCATGTTTCCGATAGCTCCGGAGTCACCTAGTGCAG” stands 15100 fluorescence intensity (a.u.); under “GGCTATCCCCACACAATGTTGCTTTATCGTCTTATCCACGCGGAGTCACCTAGTGCAG”, 8410 fluorescence intensity (a.u.).
Under “GCTTTTTCTTTTGCATTGGTTGTGCCTGTGTACAGAGGTACGGAGTCACCTAGTGCAG” stands 8680 fluorescence intensity (a.u.); under “ACCCAGGCGCTCTGGCTTGCTCGACTGCTTAGTGATCTCCCGGAGTCACCTAGTGCAG”, 8400 fluorescence intensity (a.u.); under “CACACCTACCCGAGGAAGAGGAGGAGGTGGGGTGGCCATGCGGAGTCACCTAGTGCAG”, 9100 fluorescence intensity (a.u.).
The figure for “GTGGCGACTGTTATCCCTAATTTTGCGGACTTGCTCTGATCGGAGTCACCTAGTGCAG” is 9800 fluorescence intensity (a.u.); for “GTCGTTTTATCCTTTACATATAACCGATGGTAAAATAATTCGGAGTCACCTAGTGCAG” it is 8390 fluorescence intensity (a.u.).
“TCTCCCTACCTGCGCAATTAGTTTTTAAATTTATCTATATCGGAGTCACCTAGTGCAG”: the binding signal was 10300 fluorescence intensity (a.u.).
Take “ACTAGGAGGGGTCACATGTTGGTTTTTTTAGGACGGAGAGCGGAGTCACCTAGTGCAG”: the binding signal is 8020 fluorescence intensity (a.u.).
Turning to “TTACATTTTAGGACATATATTTGGGGAGCTTCTTGGCTGTCGGAGTCACCTAGTGCAG”, the binding signal was 10800 fluorescence intensity (a.u.).
Under “GAACACCATGTCTGCCATGTCCGCGTGCATAAACACCGTCCGGAGTCACCTAGTGCAG” stands 9470 fluorescence intensity (a.u.).
Under “TTAACTAACTGCGTCATCGCCACCGTCGTCATGGCATCTTCGGAGTCACCTAGTGCAG” stands 9320 fluorescence intensity (a.u.).
As to “CTCACTTGACCGTGAACAGCACTCACTTGATTTGTACTTTCGGAGTCACCTAGTGCAG”, the binding signal is 10000 fluorescence intensity (a.u.).
The figure for “TTGGTTAGGAGCTGTTTTGTTTGTTGGGTTGAAATCGTCACGGAGTCACCTAGTGCAG” is 10200 fluorescence intensity (a.u.); for “ATCATATTGCTGTCGACCTGTCGTTCATCCGAGCTGCTTTCGGAGTCACCTAGTGCAG” it is 11900 fluorescence intensity (a.u.); for “GGCCCCACGTTTCATCCTCACGACCGTGTCCAACCCAGGGCGGAGTCACCTAGTGCAG” it is 10300 fluorescence intensity (a.u.).
The figure for “GGTGCGTTTTAGGTGTGTTTAGTTCGCGAAAAGAAAATTTCGGAGTCACCTAGTGCAG” is 11200 fluorescence intensity (a.u.); for “CACATCATCTTCGATCTCGCCCTGGTTCGAGTCAATTCATCGGAGTCACCTAGTGCAG” it is 11500 fluorescence intensity (a.u.); for “CTATCTGGTTTAGGGTTTAGGGTTTATATGTATGTAAAATCGGAGTCACCTAGTGCAG” it is 8900 fluorescence intensity (a.u.).
In the case of “ATTCAATGCTTATCGGGGTTAGATCTTTCTAGCTATGATTCGGAGTCACCTAGTGCAG”, the binding signal is 11700 fluorescence intensity (a.u.).
For “ACTTCTTTTGGGCTTTTCTTTTGCAATAGAACGTTTTGGACGGAGTCACCTAGTGCAG”, the binding signal is 8410 fluorescence intensity (a.u.).
The figure for “ATCAGTGGTATAAAAAGGGGTAGAGGGAGGGTGGCCTCCACGGAGTCACCTAGTGCAG” is 8900 fluorescence intensity (a.u.).
The figure for “TTCCTAAATATTTACGACGTTGACTTTTTTAAAAATGTTTCGGAGTCACCTAGTGCAG” is 20100 fluorescence intensity (a.u.); for “ATTTTTACATGTCTATCTTTTTTGTGTGTAGTACATAAATCGGAGTCACCTAGTGCAG” it is 8270 fluorescence intensity (a.u.).
The figure for “ACCTCCTGGTCCTGTTACTACCACTGCATTAATTGTGTTTCGGAGTCACCTAGTGCAG” is 9710 fluorescence intensity (a.u.); for “AACTCGATGATGATGTCGCCACGACGCCTTGTATATATTTCGGAGTCACCTAGTGCAG” it is 8190 fluorescence intensity (a.u.).
For “AACCCTTGACTGTGGATATGCATGACACTTCTATTTTACCCGGAGTCACCTAGTGCAG”, the binding signal was 8080 fluorescence intensity (a.u.).
Under “GATATGCCTCTGTGGATGCAATTGATCTCCTTTGACTTTTCGGAGTCACCTAGTGCAG” stands 9370 fluorescence intensity (a.u.).
Turning to “TGGTTTGGTCTAGTTCTAGGAGTGTACTACATGTGCGTGCCGGAGTCACCTAGTGCAG”, the binding signal is 11200 fluorescence intensity (a.u.).
The figure for “CCACGTAGGCGCCACGTCAGCCAAAACCGCTCTTAAAACCCGGAGTCACCTAGTGCAG” is 8110 fluorescence intensity (a.u.).
As to “ATTGTGTACTGGATGATCATGCATTTTATGATTGTATTAACGGAGTCACCTAGTGCAG”, the binding signal was 8860 fluorescence intensity (a.u.).
Consider “AGCAAATCAAGGTTTAGTTTTCTTCCCTTTGAGGCTTTCACGGAGTCACCTAGTGCAG”, for which the binding signal was 8180 fluorescence intensity (a.u.).
“ACCTGTTTGTTGTTGTTGTCGTCGTCGTCTTCTCCTACCTCGGAGTCACCTAGTGCAG”: the binding signal is 14000 fluorescence intensity (a.u.).
Under “AAATATCTACGTTTAGTTTGTTGTCAAATTTGGTCAACATCGGAGTCACCTAGTGCAG” stands 9160 fluorescence intensity (a.u.).
